These results are taken from article doi:10.1101/2024.03.16.585334.

The chains behind the UniProt entries cited, without tags or fusion partners. Residues count along the entry.
UniProt Q13148: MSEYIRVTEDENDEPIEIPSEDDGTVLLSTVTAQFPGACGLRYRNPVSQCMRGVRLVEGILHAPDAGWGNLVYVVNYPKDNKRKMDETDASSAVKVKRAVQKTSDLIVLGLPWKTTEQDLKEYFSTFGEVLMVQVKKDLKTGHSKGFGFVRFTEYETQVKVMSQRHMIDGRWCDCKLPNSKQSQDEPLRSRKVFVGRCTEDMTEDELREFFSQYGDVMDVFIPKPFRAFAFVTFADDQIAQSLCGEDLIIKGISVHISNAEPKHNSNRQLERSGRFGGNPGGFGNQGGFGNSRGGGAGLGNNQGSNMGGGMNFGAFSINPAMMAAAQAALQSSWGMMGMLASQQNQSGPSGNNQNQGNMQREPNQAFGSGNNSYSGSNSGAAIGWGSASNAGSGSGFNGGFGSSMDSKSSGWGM
UniProt P02769, residues 25-607: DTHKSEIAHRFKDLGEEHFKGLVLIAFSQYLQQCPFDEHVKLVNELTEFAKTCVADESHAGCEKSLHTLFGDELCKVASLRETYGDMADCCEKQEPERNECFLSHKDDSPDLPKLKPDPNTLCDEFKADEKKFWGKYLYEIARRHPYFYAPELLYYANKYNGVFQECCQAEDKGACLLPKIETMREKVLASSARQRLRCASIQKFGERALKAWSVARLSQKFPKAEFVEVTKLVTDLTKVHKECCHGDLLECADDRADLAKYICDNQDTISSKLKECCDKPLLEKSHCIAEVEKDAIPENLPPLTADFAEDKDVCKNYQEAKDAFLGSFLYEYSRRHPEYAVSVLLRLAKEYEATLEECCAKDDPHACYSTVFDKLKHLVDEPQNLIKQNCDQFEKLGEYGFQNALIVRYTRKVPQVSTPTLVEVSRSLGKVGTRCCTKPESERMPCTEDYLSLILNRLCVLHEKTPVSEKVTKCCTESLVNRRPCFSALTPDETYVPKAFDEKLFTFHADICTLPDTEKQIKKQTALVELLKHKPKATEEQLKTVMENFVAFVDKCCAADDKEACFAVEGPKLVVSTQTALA

Results are given in words; binding and its absence hold for the method and conditions named.

The target of the test is recombinant full-length wild-type human TDP-43 (residues 1-414), TAMRA-labeled (human) (UniProt Q13148). Description: recruitment into phase-separated droplets.

As to “bovine serum albumin (BSA), FITC-labeled (from UniProt P02769 25-607)”, the binding entry is given as “no binding”.
